# Values from PubChem BioAssay AID652259 (Drosophila RNAi Screening Center, 2013).
# Screen: 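Identify new Wingless signalling regulators in fly cells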 (primary screen)
# System: Drosophila clone 8 imaginal disc epithelial cells
# Reagent: long dsRNA against Drosophila genes
# Conditions: pathway stimulated by co-transfected Wingless expression plasmid
# Detection: 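Dual luciferase reads per well after Wingless plasmid stimulation: reporter firefly light and Renilla control light; activity is firefly divided by Renilla, a ratio not deposited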
# Reading the numbers: firefly reporter light: higher = more Wg reporter light, before normalisation; Renilla control light: higher = more transfected or surviving cells
# Hit rule: 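a knock-down is a candidate when at least two out of four statistical tests show it departing from its plate mean; one test alone signals a weak candidate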
# Meaning of the calls: active = candidate regulator (raises or lowers reporter); inactive = not a candidate
# The screen tested about 22,000 reagents; this is an unselected part of those with a known target gene and a result. In the full data, 233 (1.1%) got an active call. 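Light values are raw, unnormalised plate reads; the ratio scores behind the reporter calls were not deposited.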 Reagents against one gene are numbered here. The record does not give: the amount of reagent, the time to read-out, the dose of the treatment.
gene,dsRNA no.,"reporter change call, replicate 1","firefly reporter light, replicate 1","firefly reporter light, replicate 2","Renilla control light, replicate 1","Renilla control light, replicate 2",Outcome
CG2528 (GeneID 35435),1,,1562,5895,603,2311,inactive
msl-1 (GeneID 35121),1,,2904,10877,167,2867,inactive
tna (GeneID 39217),1,,2729,,1565,,inactive
tna (GeneID 39217),2,Wg reporter activity raised,17401,,2523,,active
CG1316 (GeneID 38526),1,,6667,,2582,,inactive
muc (GeneID 34021),1,,4016,10609,1131,3576,inactive
muc (GeneID 34021),2,,6.26e5,6.19e5,2.24e5,2.37e5,inactive
CG7402 (GeneID 39994),1,,5961,,3163,,inactive
CR18228 (GeneID 8674096),1,,20557,,4550,,inactive
NdufV3 (GeneID 32076),1,,19637,,9458,,inactive
lva (GeneID 31350),1,,3569,8726,1728,3432,inactive
Arf4 (GeneID 43823),1,,12320,,10672,,inactive
Ucp4A (GeneID 32764),1,,21933,7.91e5,11625,3.63e5,inactive
sens-2 (GeneID 33957),1,,3425,8025,1554,2178,inactive
sens-2 (GeneID 33957),2,,3536,7754,1131,1210,inactive
sens-2 (GeneID 33957),3,,6.44e5,6.08e5,95894,95744,inactive

3 entries from above, reformatted:
{"gene":"CG2528 (GeneID 35435)","dsRNA no.":1,"firefly reporter light, replicate 1":1562,"firefly reporter light, replicate 2":5895,"Renilla control light, replicate 1":603,"Renilla control light, replicate 2":2311,"Outcome":"inactive"}
{"gene":"msl-1 (GeneID 35121)","dsRNA no.":1,"firefly reporter light, replicate 1":2904,"firefly reporter light, replicate 2":10877,"Renilla control light, replicate 1":167,"Renilla control light, replicate 2":2867,"Outcome":"inactive"}
{"gene":"tna (GeneID 39217)","dsRNA no.":1,"firefly reporter light, replicate 1":2729,"Renilla control light, replicate 1":1565,"Outcome":"inactive"}

More entries:
gene,dsRNA no.,"reporter change call, replicate 1","firefly reporter light, replicate 1","firefly reporter light, replicate 2","Renilla control light, replicate 1","Renilla control light, replicate 2",Outcome
CG7536 (GeneID 32786),1,,2979,9516,1149,3096,inactive
CG13924 (GeneID 38247),1,,6091,,2251,,inactive
CG17167 (GeneID 3354991),1,,17905,,12900,,inactive
CG17167 (GeneID 3354991),2,,26386,,1430,,inactive
CG9458 (GeneID 41214),1,,15719,,4133,,inactive
CG5910 (GeneID 40264),1,,9008,,4355,,inactive
Reepl1 (GeneID 32103),1,,31820,,12838,,inactive
ppk23 (GeneID 32731),1,,19315,,8208,,inactive
Pp1alpha-96A (GeneID 42922),1,,26080,,18729,,inactive
CG17191 (GeneID 43249),1,,7931,,2619,,inactive
MED28 (GeneID 43079),1,,17867,,16119,,inactive
CG10486 (GeneID 38664),1,,1456,4241,1205,3312,inactive
eIF2Bdelta (GeneID 37706),1,,12998,,4192,,inactive
